In paper PMC11109619:
No constants are given. Whether binding was seen depends on the method and setting. Binding seen in cells or lysates may run through a third protein. Some entries that bind do so weakly or less than the wild type.

The chains behind the UniProt entries cited, without tags or fusion partners.
UniProt P25490: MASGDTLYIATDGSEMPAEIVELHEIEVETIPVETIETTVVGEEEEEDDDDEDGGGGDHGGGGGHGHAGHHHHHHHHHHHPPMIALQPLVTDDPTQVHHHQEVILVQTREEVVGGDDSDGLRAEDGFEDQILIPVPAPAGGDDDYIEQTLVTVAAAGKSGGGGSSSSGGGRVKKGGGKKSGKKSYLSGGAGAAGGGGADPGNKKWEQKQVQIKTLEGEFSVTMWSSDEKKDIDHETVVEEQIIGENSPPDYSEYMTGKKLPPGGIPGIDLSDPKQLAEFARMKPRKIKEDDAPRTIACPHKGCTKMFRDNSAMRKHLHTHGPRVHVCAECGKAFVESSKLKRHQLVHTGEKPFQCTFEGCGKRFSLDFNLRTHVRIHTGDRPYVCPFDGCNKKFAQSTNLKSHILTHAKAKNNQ
UniProt Q09472: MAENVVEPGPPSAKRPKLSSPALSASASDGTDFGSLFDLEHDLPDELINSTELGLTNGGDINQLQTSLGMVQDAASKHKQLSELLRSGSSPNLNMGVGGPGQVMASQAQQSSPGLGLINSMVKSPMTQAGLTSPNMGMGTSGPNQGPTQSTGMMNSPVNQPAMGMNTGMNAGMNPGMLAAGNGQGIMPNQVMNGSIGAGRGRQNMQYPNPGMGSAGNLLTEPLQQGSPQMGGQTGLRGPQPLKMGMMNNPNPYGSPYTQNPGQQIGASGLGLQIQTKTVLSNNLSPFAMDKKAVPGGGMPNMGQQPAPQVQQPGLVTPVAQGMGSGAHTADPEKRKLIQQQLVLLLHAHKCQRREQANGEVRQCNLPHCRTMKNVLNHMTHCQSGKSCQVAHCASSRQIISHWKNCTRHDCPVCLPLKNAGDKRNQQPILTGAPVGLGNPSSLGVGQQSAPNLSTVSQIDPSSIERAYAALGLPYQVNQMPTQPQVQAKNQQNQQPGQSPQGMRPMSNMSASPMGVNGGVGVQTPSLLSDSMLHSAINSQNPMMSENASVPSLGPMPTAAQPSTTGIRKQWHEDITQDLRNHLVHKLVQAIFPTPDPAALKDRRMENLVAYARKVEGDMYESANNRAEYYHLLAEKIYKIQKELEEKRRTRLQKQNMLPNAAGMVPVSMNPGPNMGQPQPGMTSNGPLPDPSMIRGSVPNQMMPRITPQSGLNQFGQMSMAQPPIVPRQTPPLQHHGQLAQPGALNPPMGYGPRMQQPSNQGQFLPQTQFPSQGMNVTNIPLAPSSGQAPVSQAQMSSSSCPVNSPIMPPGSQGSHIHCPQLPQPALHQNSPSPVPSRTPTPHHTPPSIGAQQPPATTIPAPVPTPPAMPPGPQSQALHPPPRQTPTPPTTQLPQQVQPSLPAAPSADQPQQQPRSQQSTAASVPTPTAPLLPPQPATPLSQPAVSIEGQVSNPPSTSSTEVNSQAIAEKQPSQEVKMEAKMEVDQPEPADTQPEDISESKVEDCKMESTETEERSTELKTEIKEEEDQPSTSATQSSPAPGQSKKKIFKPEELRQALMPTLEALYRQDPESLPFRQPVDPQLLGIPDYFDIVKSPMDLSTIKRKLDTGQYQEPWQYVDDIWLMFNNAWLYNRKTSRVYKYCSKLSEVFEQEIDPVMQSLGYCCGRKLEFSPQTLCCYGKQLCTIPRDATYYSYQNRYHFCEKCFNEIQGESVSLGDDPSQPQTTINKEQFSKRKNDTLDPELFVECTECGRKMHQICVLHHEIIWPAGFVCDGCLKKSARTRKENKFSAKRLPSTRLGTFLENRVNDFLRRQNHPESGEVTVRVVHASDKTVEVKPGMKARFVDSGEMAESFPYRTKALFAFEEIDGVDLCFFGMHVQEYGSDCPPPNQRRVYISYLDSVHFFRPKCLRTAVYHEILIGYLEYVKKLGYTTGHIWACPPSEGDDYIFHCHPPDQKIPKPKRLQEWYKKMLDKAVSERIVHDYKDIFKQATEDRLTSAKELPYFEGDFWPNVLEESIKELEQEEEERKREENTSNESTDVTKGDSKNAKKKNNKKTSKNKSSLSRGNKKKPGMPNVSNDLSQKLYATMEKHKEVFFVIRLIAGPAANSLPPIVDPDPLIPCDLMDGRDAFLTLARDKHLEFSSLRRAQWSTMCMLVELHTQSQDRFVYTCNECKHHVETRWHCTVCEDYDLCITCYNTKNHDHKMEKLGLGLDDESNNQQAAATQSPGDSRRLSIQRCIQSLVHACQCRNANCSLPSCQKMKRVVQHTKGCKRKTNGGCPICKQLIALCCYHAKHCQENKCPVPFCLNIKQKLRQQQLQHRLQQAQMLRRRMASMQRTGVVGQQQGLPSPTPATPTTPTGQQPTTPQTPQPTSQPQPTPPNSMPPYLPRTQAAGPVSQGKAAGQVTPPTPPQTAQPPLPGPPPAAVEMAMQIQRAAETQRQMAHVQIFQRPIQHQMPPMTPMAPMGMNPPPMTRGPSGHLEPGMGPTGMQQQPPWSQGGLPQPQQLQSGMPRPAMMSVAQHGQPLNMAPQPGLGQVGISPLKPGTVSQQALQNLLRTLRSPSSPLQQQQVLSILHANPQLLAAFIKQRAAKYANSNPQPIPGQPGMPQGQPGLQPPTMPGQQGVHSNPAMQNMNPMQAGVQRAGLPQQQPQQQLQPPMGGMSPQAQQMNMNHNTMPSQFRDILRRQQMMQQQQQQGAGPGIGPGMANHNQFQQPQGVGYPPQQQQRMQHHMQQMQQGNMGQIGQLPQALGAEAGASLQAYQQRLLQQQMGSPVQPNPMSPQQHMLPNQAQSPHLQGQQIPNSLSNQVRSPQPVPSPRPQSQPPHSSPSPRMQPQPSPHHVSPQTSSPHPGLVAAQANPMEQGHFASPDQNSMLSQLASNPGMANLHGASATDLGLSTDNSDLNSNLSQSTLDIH

Target: Yin-Yang 1 (YY1) (human (endogenous in HMC3)) (UniProt P25490)
Assay: co-IP; HMC3 cells treated with LPS+IFN-γ for 24 h; lysates incubated with antibodies (YY1, Cell Signaling; p300, Santa Cruz) for 12 h at 4 °C, protein A/G beads 2 h, extensive washing; YY1 and p300 detected by Western blotting

Substance: p300 (from UniProt Q09472 1-2414)
- binding: binds
